Data reported in publication doi:10.1101/2020.12.15.422995.

Target: T1, Fur (PerR homolog), 17.4 kDa (Bacillus subtilis) (UniProt P54574)
T1 sequence (looked up, limits assumed): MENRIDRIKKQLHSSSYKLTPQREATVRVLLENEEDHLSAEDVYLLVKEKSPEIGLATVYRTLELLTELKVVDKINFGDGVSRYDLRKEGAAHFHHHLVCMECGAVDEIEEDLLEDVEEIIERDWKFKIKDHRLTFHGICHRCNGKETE
Assay: EMSA
Conditions: EDTA

CCTGATAGGATGATGGATAATTAAGGCTTTTATCCACTTTTTACTGACATTTTG (double strand) [54-bp degenerate sloR promoter (Deg_sloR_CC1)]
binding result: no binding

Construct, isoform or probe ends are uncertain for at least one entry. A negative result means that nothing was seen under these conditions. At least one verdict was read from the data and is not stated in words by the source. Protein sequences can lack the tags named with them.
